Source: ChEMBL document CHEMBL3988442, “University of Dundee, Small-Polar-MMV Screening Library” (2021).

A: 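Growth of Mycobacterium tuberculosis over 4 days (cholesterol / DPPC medium with tyloxapol); the read-out is not stated. Concentration: 50 µM. Higher reads as more growth inhibition (inferred: compounds with an IC50 in retests scored well above the rest). About 69,000 compounds were tested under these conditions; 0.54% (about 370) showed 50% or more at least once.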
B: 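Phenotypic screen: M. tuberculosis growth, glucose 7H9 medium, 3 days; the read-out is not stated. Compounds at 50 µM. The record gives no direction; compounds that gave an IC50 in retests scored well above the rest, so higher reads as more growth inhibition. Size under these conditions: about 69,000 compounds, about 760 of them at 50% or above in at least one test.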

Each number is a percent effect as filed. The controls that fix the scale are not given in the record; negative values are as filed. Compounds were drawn at random from those tested, without regard to their results. Two or more numbers in one place are separate tests of the same structure; such repeats can differ widely.

{"smiles": "CC(Nc1nc(-c2ccccc2)nc2c1CCNCC2)c1cccnc1", "stereo": "centres unmarked", "A": 30.44, "B": 66.7}
{"smiles": "COc1cc(NC(=O)N(C)CCC2CC2)ncn1", "A": -30.42, "B": "-54.32 and 6.688"}
{"smiles": "CNC(=O)COC1COC2(CCN(c3ncccn3)CC2)C1.O=C(O)C(F)(F)F", "stereo": "centres unmarked", "A": 8.893, "B": "-3.319 and -5.907"}
{"smiles": "CCc1nnc(N2CCN(CCc3ccccc3)C(=O)C2)o1", "A": "-6.42 and -9.306", "B": -16.99}
{"smiles": "CCN1CCC(NC(=O)CN2CCc3c(ncn3C3CC3)C2)CC1", "A": -37.74, "B": -25.47}
{"smiles": "[H][C@]12CC[C@]([H])(CN(S(=O)(=O)c3cn(C)cn3)C1)N(Cc1cscn1)C2=O", "A": -25.83, "B": -63.02}
{"smiles": "CCOCC(=O)NCc1cc(Br)ccc1OC(F)F", "A": "-4.793 and 1.871", "B": 13.99}
{"smiles": "CC(C)C(=O)NCC(=O)N1CCC2(CC1)c1ccccc1[C@@H](N)[C@@H]2O", "A": -35.34, "B": -21}
{"smiles": "COCC1CN(C(=O)Cc2ccccn2)Cc2ncn(C)c21", "stereo": "centres unmarked", "A": 17.3, "B": "-3.448 and 9.835"}
{"smiles": "Nc1cc(-c2cc(C(=O)O)ccc2Cl)c2cc[nH]c2n1", "A": 9.876, "B": -2.277}
{"smiles": "O=C(NCc1ccco1)C1CCCN1Cc1nc(-c2ccco2)no1", "stereo": "centres unmarked", "A": -21, "B": -17.64}
{"smiles": "CCN1Cc2cc(F)ccc2N(CC(O)C(F)(F)F)CCC1=O", "stereo": "centres unmarked", "A": -14.87, "B": 3.681}
{"smiles": "[H][C@]12CC[C@]([H])(CC(=O)N(C)C1)N2C(=O)c1cc2ccccc2[nH]c1=O", "A": 0.4436, "B": -19.78}
{"smiles": "Cc1cnn(CC2CCCN2C(=O)c2cccc3[nH]ncc23)c1", "stereo": "centres unmarked", "A": 0.7418, "B": -16.62}
{"smiles": "O=C(CCN1C(=O)CCC1=O)NCC1(c2c(F)cccc2F)CCCC1", "A": -10.44, "B": -14.16}
{"smiles": "CCc1n[nH]c(C2CN(C(=O)c3cnn(CC)c3)CCO2)n1", "stereo": "centres unmarked", "A": -7.235, "B": -29.59}
{"smiles": "CCOc1cccc(C(=O)N(CCC#N)Cc2ccccn2)c1", "A": "-14.16 and -12.14", "B": 8.003}
{"smiles": "CNC(=O)CS(=O)(=O)C1CCN(S(=O)(=O)c2cccc(Cl)c2C)CC1", "A": 8.725, "B": 8.35}
{"smiles": "Cc1ccc([C@@H]2CN(S(=O)(=O)N(C)C)C[C@H]2N(C)C)cc1", "A": 2.711, "B": 22.1}
{"smiles": "CCC(Nc1cccc(OC)c1)C(=O)NCc1ccc2[nH]c(=O)[nH]c2c1", "stereo": "centres unmarked", "A": -24.64, "B": -24.5}
{"smiles": "O=C(Cn1nc(-c2ccc(F)cc2)oc1=O)Nc1ccccc1", "A": -10.22, "B": 6.984}
{"smiles": "Cc1ccc(C)c(OC(C)C(=O)NCCNc2cccnc2)c1", "stereo": "centres unmarked", "A": 18.26, "B": 23.87}
{"smiles": "c1ccc2nc(NCC3(N4CCOCC4)CCSC3)cnc2c1", "stereo": "centres unmarked", "A": -39.01, "B": "-7.243 and -33.98"}
{"smiles": "COC(=O)c1ccc(N2CCC(C(O)c3ccccc3)CC2)nn1", "stereo": "centres unmarked", "A": 107.8, "B": 94.89}
{"smiles": "O=C(NCC1CC[C@@]2(CNCCOC2)O1)c1cnccn1", "stereo": "some centres unmarked", "A": -57.66, "B": "-11.62 and -52.22"}
{"smiles": "Cc1ccc(C(=O)NCc2ccc(N3CCCC(C(N)=O)C3)cc2)o1", "stereo": "centres unmarked", "A": -16.43, "B": -5.85}
{"smiles": "O=C(NCC(O)c1ccc(F)cc1)C1CCN(C2CCCCC2)CC1", "stereo": "centres unmarked", "A": 5.063, "B": "-4.708 and -4.586"}
{"smiles": "CCc1nc(C2CCCN(C(=O)c3ccncc3)C2)no1", "stereo": "centres unmarked", "A": 23.13, "B": 1.029}
{"smiles": "c1ccc(-c2noc3c2CN(CC2CC2)CC3)cc1", "A": 7.611, "B": "9.37 and 21.35"}
{"smiles": "O=C(O)C(F)(F)F.[H][C@]12CCC[C@@]1(COCc1cccnc1)CN(C(=O)c1ncccn1)C2", "A": -32.2, "B": -8.657}

3 of the entries, repeated:

{"smiles": "CC(C)C(=O)NCC(=O)N1CCC2(CC1)c1ccccc1[C@@H](N)[C@@H]2O", "A": -35.34, "B": -21}
{"smiles": "COCC1CN(C(=O)Cc2ccccn2)Cc2ncn(C)c21", "stereo": "centres unmarked", "A": 17.3, "B": "-3.448 and 9.835"}
{"smiles": "O=C(O)C(F)(F)F.[H][C@]12CCC[C@@]1(COCc1cccnc1)CN(C(=O)c1ncccn1)C2", "A": -32.2, "B": -8.657}